Source: US8173771B2, “Humanin receptor or humanin-like polypeptide receptor” (Keio Univeristy, priority 2005, dated 2012)
At least one peptide structure holds a part that was inferred or is arguable (an end, a ring closure or a residue).

Assays:
Test in all cases: In vitro pull-down assay with HN- or HNA-conjugated Sepharose 4B
Assay type in all cases: binding
CNTF receptor = biological target: T1, CNTF receptor (Homo sapiens, UniProt P26992); settings: lysates of F11 cells overexpressing CNTF-R
T1 construct: V5 (C); host or cells: F11 cells (lysate)
T1 sequence (P26992 23-342): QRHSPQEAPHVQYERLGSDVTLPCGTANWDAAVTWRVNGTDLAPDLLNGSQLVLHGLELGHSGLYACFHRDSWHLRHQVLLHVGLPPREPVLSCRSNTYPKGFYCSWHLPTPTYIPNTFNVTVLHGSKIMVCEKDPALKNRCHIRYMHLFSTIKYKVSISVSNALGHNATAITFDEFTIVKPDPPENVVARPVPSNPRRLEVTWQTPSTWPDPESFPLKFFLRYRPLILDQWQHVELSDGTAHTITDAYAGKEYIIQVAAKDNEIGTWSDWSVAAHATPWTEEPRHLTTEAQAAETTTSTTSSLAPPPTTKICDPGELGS
Description: (§1) C) The photos show the results of in vitro pull down assay using HN- or HNA-conjugated Sepharose 4B bead. WSX-1, CNTF-R, and […] were over-expressed in F11 cells and the pull down assay was made using the above 4B bead. Immunoblot analysis was done using PO4 antibody against Humanin (lower panes). HN or HNA comprised in the above Sepharose 4B bead was compared with synthesized HN peptide (50 pmol) as a positive control.
(§2) F11 cells (7×10^4/well in 6-well plates) were transfected with the plasmids encoding mycHis-WSX-1, V5-CNTF-R or rat IL-6R (V6 tagged). At 48 hrs after transfection, the cells were harvested for pull-down assays with HN or HNA-conjugated Sepharose 4B. For conjugation of […] or HNA with Sepharose 4B, 3 ml of CNBr-activated Sepharose 4B was incubated with 0.5 mg of HN or HNA in a coupling buffer (0.1M NaHCO3 0.5M NaCl, pH8.3) overnight at 4° C. The beads were then reacted with a blocking buffer (0.2M glycine, pH 8.0) for 2 hrs at a room temperature, washed with the coupling buffer and stored at 4° C. for use in pull-down assay. For each pull-down assay, 20 μl of 1:1 slurry of Sepharose was used for 100 μl of the cell lysate.

WSX-1 = biological target: T2, WSX-1 (Homo sapiens, UniProt Q6UWB1); settings: lysates of F11 cells overexpressing WSX-1
T2 construct: His; expressed in transfected cells; host or cells: F11 cells (lysate)
T2 sequence (Q6UWB1 33-636): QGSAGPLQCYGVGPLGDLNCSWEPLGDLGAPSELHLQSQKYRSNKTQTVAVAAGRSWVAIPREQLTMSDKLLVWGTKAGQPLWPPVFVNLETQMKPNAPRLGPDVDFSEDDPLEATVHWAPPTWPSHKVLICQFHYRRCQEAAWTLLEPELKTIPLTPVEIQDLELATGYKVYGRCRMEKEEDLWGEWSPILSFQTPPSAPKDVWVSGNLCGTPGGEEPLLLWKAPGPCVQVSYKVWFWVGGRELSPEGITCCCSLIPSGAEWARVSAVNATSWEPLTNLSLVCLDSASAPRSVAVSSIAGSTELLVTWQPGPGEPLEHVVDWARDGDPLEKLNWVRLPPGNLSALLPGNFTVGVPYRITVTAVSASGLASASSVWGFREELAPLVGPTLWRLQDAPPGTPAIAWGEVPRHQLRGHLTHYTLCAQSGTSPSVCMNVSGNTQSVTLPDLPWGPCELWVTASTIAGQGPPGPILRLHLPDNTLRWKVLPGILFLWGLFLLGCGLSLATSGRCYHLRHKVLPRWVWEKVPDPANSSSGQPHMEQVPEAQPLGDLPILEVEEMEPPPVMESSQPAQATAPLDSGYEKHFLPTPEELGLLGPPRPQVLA
Description: as §1, §2

IL-6 receptor = biological target: T3, IL-6 receptor (Rattus norvegicus, UniProt P22273); settings: lysates of F11 cells overexpressing IL-6R
T3 construct: V6 (so in the source); probably V5); host or cells: F11 cells (lysate)
T3 sequence (P22273 20-462): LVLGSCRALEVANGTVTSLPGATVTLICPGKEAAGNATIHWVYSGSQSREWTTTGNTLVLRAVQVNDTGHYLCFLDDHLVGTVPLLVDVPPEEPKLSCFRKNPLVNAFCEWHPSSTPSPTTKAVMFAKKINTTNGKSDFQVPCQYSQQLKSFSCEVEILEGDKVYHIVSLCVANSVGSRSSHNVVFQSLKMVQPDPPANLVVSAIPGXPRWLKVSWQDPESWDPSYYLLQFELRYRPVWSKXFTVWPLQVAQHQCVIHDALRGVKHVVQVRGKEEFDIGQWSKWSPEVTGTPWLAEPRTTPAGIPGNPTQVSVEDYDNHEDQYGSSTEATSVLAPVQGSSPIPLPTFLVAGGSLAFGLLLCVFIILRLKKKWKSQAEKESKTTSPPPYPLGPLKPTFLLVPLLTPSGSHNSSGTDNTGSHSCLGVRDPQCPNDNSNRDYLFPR
Description: as §1, §2

CC[C@H](C)[C@H](NC(=O)[C@H](CCC(=O)O)NC(=O)[C@H](CO)NC(=O)[C@@H](NC(=O)[C@H](CC(C)C)NC(=O)[C@H](CC(C)C)NC(=O)[C@H](CC(C)C)NC(=O)[C@H](CC(C)C)NC(=O)[C@H](CS)NC(=O)[C@H](CO)NC(=O)[C@H](Cc1ccccc1)NC(=O)CNC(=O)[C@H](CCCNC(=N)N)NC(=O)[C@@H]1CCCN1C(=O)[C@H](C)NC(=O)[C@@H](N)CCSC)[C@@H](C)O)C(=O)N[C@@H](CC(=O)O)C(=O)N[C@@H](CC(C)C)C(=O)N1CCC[C@H]1C(=O)N[C@H](C(=O)N[C@@H](CCCCN)C(=O)N[C@@H](CCCNC(=N)N)C(=O)N[C@@H](CCCNC(=N)N)C(=O)N[C@@H](C)C(=O)O)C(C)C [HN, Humanin]
binding in pull-down to CNTF receptor (CNTF receptor): bound | binding in pull-down to WSX-1 (WSX-1): bound | binding in pull-down to IL-6 receptor (IL-6 receptor): not
